Measurements from PMC12276038, “Impact of Chelation on Reactivity and Cytotoxicity of Hemilabile Biphenyl Gold(III) N‐Heterocyclic Carbene Complexes” (Chemmedchem, 2025).

What was measured:
Conditions in all cases: 1 equivalent, DMSO-d6, straight after mixing
[1] = NMR reactivity with N-acetyl methionine
[2] = NMR reactivity with N-acetyl cysteine
[3] = NMR reactivity with N-acetyl histidine

Row | SMILES | NMR Conversion, Cationic (b form), N-AcMet [1] [%] | NMR Conversion, Cationic (b form), N-AcCys [2] [%] | NMR Conversion, Cationic (b form), N-AcHis [3] [%]
1 | C[n+]1[c]2n(c3ccccc31)Cc1cccc[n+]1[Au-]21[c]2cc(C(C)(C)C)ccc2-c2ccc(C(C)(C)C)c[c]21.F[P-](F)(F)(F)(F)F [BGC18b] | 0 | – | –
2 | Cc1cccc2[n+]1[Au-]1([c]3cc(C(C)(C)C)ccc3-c3ccc(C(C)(C)C)c[c]31)[c]1n(cc[n+]1C)C2.F[P-](F)(F)(F)(F)F [BGC13b] | 0 | 100 | 100
3 | C[n+]1ccn2[c]1[Au-]1([c]3cc(C(C)(C)C)ccc3-c3ccc(C(C)(C)C)c[c]31)[n+]1c(ccc3ccccc31)C2.F[P-](F)(F)(F)(F)F [BGC16b] | 0 | 100 | –
4 | Cc1cc[n+]2c(c1)Cn1cc[n+](C)[c]1[Au-]21[c]2cc(C(C)(C)C)ccc2-c2ccc(C(C)(C)C)c[c]21.F[P-](F)(F)(F)(F)F [BGC14b] | 0 | 100 | 100
5 | C[n+]1ccn2[c]1[Au-]1([c]3cc(C(C)(C)C)ccc3-c3ccc(C(C)(C)C)c[c]31)[n+]1ccncc1C2.F[P-](F)(F)(F)(F)F [BGC17b] | 0 | 100 | 100
6 | COc1cc[n+]2c(c1)Cn1cc[n+](C)[c]1[Au-]21[c]2cc(C(C)(C)C)ccc2-c2ccc(C(C)(C)C)c[c]21.F[P-](F)(F)(F)(F)F [BGC15b] | 0 | 100 | 100
7 | CC(C)(C)c1ccc2[c](c1)[Au-]1([c]3cc(C(C)(C)C)ccc3-2)[c]2n3ccccc3c[n+]2Cc2cccc[n+]21.F[P-](F)(F)(F)(F)F [BGC19b] | 0 | 100 | 100
8 | C[n+]1ccn2[c]1[Au-]1([c]3cc(C(C)(C)C)ccc3-c3ccc(C(C)(C)C)c[c]31)[n+]1ccccc1C2.F[P-](F)(F)(F)(F)F [BGC12b] | 0 | 100 | 92
